Assay [1] has as its target NLS-NUPR1L, peptide of the nuclear localization sequence of NUPR1L (residues 51-74). In words: translational diffusion NMR (DOSY); peptide at 120 μM in 100% D2O, 283 K, pH 7.2, 50 mM deuterated Tris; Rh by comparison with dioxane; both purified.
In assay [2] the target is T1, human importin α3 (Impα3), intact (human, UniProt O00629 1-521).
T1 construct: Human importin α3 (KPNA4), intact protein with the IBB domain, residues 1-521; Purification as for ∆Impα3; also called KPNA4; source: E. coli BL21 (DE3), purified (codon-optimized DNA synthesized by NZYtech, in the pHTP1 vector)
T1 sequence (looked up): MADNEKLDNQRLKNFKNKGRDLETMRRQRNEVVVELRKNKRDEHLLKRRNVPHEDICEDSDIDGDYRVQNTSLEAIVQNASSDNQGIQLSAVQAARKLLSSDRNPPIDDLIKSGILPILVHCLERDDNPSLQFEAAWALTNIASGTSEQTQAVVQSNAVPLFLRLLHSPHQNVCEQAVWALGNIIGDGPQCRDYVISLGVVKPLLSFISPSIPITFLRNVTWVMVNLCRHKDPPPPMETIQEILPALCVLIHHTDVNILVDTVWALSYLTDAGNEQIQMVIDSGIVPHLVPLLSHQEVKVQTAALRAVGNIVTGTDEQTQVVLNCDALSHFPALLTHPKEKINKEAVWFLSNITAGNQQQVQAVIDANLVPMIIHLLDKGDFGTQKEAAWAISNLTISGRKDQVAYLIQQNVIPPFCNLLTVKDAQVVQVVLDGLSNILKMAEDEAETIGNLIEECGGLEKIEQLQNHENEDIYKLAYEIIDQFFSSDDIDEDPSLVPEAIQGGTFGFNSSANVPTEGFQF
The assay is described as follows: steady-state fluorescence spectra (complex against the sum of the spectra); 50 mM phosphate buffer, pH 7.0, 298 K; excitation at 280 or 295 nm; NUPR1L 15 μM (protomer units) with importin 5 μM; NLS-NUPR1L 10 μM with importin 4 μM; both purified.

For assay [3], the target named is T1, human importin α3 (Impα3), intact. The assay is described as follows: far-UV CD spectra (complex against the sum of the spectra); 50 mM phosphate buffer, pH 7.0, 298 K; concentrations as in the fluorescence spectra; both purified.

No constants are given. Whether binding was seen depends on the method and setting. Some binding calls cover weakened binding; strength is not graded here.

B1: NLS-NUPR1L, peptide of the nuclear localization sequence of NUPR1L (residues 51-74) (peptide)
peptide: RTRREQALRTNWPAPGGHERKVAQ
modifications: acetylation at the N terminus; amidation at the C terminus
Turning to B1, the binding entry is given as “no binding (tested: 120 μM)” in assay [1], “binds” in assay [2] and “binds” in assay [3].

These data come from paper PMC7583046, “The Paralogue of the Intrinsically Disordered Nuclear Protein 1 Has a Nuclear Localization Sequence that Binds to Human Importin α3” (International Journal of Molecular Sciences, 2020).
